Measurements taken from article PMC10709176.

Target: human serum albumin (HSA) (Homo sapiens) (UniProt P02768)
Assay: SPR
Conditions: 2'-OMe at C1,G2,G3,G4,U37,G38,C39,C40, 3' idT, 5' linker (NH2 and SH) carrying both HC (hydroxycoumarin maleimide) and DA (dodecanedioic acid), protein amine-coupled on CM5 chip (immobilization at 25 C), aptamers in 1x PBS, multi-cycle kinetics, 1:1 fit, single-stranded DNA

CGGGGTGTGGGTTCGTCGTTAGCTTGATTTGGCAGCUGCC [Apc001OC]
Kd (pre-saturated with blocking peptide A): 27.8 nM | Kd (pre-saturated with blocking peptide B): 23.5 nM | binding result (pre-saturated with blocking peptide C): no binding | Kd (pre-saturated with blocking peptide D): 12.6 nM

Negatives hold for the conditions tested. For at least one entry, the source does not settle the construct or the ends of the probe.
